Reference: paper PMC11040358

Sequences of proteins named here, by UniProt entry; tags and fusion partners are left off.
UniProt P63094: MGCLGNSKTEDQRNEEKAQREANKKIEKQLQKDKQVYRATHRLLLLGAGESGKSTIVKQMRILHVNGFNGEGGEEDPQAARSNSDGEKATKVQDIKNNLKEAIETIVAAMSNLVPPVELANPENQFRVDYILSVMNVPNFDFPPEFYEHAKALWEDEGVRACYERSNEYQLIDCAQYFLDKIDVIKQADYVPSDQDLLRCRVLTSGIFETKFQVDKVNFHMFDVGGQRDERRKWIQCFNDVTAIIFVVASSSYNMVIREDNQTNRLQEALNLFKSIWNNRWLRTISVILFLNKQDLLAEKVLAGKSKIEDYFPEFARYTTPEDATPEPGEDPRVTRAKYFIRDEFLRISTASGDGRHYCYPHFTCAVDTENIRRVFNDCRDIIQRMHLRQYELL
UniProt Q61414: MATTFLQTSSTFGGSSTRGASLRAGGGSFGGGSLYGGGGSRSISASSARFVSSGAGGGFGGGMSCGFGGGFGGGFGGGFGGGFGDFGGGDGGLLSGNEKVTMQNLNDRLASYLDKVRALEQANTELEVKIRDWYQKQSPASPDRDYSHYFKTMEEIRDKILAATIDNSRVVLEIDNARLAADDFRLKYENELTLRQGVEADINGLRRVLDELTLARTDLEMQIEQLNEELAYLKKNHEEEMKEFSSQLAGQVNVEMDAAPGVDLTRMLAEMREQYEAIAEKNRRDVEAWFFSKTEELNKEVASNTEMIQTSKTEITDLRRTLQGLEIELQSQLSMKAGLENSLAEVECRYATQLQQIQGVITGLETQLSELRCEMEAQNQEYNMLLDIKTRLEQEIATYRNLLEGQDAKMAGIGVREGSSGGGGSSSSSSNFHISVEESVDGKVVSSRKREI
UniProt P70398: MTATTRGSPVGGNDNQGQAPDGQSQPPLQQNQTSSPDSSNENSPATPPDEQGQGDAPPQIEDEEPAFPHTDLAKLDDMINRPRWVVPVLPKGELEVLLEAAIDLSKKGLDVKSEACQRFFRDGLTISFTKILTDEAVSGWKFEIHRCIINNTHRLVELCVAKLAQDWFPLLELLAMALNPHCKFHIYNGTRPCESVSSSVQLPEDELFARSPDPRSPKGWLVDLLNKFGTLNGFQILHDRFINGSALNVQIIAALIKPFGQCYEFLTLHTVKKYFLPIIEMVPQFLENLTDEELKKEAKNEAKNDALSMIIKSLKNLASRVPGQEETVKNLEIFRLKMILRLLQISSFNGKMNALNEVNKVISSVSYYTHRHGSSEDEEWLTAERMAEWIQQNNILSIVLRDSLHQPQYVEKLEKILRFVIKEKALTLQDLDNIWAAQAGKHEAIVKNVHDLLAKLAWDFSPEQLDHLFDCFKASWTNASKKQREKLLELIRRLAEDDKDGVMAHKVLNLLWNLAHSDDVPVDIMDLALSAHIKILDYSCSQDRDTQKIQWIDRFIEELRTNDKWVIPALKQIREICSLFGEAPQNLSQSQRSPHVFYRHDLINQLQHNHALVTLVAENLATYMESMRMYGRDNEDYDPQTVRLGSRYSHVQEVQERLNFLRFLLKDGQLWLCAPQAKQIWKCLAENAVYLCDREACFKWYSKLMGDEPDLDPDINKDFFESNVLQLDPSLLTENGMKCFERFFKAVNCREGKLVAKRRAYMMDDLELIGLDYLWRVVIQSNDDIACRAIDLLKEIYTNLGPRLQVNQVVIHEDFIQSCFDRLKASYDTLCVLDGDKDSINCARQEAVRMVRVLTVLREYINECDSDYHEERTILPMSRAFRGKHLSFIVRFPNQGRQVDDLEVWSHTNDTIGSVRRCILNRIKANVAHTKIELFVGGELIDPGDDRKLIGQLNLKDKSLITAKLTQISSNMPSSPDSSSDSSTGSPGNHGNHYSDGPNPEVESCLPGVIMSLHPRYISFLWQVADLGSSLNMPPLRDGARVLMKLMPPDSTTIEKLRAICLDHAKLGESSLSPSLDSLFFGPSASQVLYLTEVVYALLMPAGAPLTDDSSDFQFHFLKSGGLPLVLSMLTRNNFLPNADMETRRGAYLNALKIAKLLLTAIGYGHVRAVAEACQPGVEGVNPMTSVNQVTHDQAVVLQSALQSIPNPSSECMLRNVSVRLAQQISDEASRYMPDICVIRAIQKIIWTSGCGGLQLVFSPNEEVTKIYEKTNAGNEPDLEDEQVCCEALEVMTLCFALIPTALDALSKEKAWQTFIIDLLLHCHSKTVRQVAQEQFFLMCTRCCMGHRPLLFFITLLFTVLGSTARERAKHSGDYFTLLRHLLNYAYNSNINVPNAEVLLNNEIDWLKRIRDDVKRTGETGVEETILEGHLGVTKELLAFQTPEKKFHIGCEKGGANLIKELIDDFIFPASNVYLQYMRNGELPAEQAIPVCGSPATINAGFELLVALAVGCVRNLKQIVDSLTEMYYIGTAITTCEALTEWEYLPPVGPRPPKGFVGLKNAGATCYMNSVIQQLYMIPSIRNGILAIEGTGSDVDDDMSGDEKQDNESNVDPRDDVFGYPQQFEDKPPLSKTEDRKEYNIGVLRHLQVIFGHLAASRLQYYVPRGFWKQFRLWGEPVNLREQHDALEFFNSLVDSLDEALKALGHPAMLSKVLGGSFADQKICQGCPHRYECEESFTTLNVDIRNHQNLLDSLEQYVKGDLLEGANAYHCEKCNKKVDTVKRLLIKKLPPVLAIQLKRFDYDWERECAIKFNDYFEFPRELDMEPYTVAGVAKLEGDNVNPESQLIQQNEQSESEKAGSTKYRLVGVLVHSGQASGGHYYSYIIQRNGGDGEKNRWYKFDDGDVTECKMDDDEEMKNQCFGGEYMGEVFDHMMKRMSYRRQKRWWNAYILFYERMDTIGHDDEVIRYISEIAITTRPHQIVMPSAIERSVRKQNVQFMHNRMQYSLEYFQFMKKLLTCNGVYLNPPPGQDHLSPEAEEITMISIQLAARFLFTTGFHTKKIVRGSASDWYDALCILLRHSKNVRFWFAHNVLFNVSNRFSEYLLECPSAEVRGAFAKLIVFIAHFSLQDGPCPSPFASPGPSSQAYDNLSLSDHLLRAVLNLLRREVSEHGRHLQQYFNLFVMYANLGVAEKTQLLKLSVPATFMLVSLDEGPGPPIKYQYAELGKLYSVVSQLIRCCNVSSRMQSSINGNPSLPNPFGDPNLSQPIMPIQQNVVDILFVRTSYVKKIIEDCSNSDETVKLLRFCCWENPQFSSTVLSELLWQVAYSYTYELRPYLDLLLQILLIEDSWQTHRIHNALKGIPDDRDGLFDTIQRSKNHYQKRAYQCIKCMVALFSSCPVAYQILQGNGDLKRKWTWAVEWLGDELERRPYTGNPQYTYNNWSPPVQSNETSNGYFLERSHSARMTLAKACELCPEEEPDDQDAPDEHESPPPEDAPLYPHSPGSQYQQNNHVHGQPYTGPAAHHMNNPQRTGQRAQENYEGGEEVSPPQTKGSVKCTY
UniProt Q7TSY6: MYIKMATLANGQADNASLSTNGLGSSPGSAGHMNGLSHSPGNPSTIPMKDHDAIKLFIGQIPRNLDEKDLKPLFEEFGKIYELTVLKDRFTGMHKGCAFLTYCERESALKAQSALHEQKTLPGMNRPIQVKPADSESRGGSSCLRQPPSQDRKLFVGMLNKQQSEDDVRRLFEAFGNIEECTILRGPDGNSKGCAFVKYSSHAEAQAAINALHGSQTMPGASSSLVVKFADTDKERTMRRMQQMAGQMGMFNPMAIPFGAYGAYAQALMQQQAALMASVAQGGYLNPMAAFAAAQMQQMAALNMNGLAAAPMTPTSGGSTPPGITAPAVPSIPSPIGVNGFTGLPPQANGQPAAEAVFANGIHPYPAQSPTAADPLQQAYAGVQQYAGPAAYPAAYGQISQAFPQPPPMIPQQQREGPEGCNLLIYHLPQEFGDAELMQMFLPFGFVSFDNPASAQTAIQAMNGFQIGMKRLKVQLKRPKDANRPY
UniProt Q9DCV7: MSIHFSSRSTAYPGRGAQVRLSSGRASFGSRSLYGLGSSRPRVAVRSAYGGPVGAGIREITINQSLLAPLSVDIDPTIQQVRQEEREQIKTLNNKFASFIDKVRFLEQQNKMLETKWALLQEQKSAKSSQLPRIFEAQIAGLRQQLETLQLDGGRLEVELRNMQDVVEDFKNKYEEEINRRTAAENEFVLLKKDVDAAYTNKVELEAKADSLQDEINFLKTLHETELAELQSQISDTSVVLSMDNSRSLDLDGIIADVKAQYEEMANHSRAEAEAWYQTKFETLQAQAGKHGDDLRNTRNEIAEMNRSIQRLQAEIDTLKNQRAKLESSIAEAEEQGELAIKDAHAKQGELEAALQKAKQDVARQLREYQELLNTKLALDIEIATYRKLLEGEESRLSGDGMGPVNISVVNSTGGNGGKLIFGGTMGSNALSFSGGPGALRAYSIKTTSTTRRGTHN
UniProt Q9DBH0: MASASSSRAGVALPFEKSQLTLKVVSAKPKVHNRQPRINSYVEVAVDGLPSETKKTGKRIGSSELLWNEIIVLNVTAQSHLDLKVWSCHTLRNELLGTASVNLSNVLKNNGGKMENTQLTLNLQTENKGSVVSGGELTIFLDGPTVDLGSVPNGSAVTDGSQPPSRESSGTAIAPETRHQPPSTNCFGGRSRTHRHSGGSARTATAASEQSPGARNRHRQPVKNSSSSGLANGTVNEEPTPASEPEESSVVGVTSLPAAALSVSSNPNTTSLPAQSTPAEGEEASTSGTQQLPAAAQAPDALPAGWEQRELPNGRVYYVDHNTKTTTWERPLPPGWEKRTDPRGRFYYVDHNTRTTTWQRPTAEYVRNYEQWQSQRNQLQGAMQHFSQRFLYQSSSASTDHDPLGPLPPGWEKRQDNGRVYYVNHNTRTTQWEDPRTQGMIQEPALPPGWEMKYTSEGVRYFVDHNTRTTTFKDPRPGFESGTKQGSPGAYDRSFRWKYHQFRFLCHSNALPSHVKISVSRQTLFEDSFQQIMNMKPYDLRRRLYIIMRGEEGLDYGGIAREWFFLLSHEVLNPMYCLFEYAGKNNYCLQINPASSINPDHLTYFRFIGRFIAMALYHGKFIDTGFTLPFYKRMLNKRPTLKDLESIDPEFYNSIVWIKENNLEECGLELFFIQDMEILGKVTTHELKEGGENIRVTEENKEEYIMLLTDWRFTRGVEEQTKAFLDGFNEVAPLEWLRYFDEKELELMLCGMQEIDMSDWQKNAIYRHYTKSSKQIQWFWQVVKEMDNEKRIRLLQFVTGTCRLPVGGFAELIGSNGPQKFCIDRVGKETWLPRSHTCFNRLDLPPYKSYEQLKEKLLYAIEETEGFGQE
UniProt P56399: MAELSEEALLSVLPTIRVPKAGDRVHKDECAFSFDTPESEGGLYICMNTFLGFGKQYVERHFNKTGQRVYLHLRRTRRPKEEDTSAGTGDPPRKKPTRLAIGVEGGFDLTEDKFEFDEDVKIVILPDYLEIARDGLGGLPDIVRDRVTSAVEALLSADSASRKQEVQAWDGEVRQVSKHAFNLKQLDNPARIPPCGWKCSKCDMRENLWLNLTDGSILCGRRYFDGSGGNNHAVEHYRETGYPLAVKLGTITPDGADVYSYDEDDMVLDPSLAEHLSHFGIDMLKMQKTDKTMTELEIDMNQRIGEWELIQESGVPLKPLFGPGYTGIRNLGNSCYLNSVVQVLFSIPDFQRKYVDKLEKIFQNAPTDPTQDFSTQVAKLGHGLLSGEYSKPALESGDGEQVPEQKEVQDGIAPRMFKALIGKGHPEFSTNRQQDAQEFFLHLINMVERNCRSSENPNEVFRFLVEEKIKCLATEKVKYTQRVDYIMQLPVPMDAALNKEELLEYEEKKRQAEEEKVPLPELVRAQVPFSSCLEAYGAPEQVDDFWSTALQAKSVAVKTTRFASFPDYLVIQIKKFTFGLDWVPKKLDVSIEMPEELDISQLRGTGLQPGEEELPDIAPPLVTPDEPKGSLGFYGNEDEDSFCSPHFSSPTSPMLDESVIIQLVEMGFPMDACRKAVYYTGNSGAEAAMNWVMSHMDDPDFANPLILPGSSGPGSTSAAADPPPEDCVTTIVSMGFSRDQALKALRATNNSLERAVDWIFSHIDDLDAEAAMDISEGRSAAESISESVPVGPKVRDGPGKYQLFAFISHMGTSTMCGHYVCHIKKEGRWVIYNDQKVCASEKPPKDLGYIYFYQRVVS

T1: Flag‐tagged Tipe1 (bait of the IP/mass spectrometry) (UniProt Q8K288)
T1 sequence: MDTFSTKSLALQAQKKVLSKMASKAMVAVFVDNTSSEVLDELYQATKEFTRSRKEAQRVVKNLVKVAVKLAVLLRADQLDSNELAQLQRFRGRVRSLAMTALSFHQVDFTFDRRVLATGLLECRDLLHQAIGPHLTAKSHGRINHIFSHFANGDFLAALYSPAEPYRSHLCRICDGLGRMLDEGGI

B1: MAEA (captured in the mass spectrometry) (enzyme, UniProt Q4VC33 1-396)
chain: MAVQESAAQLSMTLKVQEYPTLKVPYETLNKRFRAAQKNIDRETSHVTMVVAELEKTLSSCPAVDSVVSLLDGVVEKLSVLKRKAVESIQAEDESAKLCKRRIEHLKEHSSDQPAAASMWKRKRMDRMMVEHLLRCGYYNTAVKLARQSGIEDLVNIEMFLTAKEVEESLERRETATCLAWCHDNKSRLRKMKSCLEFSLRIQEFIELVRQNKRLDAVRHARKHFSQAEGSQLDEVRQVMGMLAFPPDTHISPYKDLLDPARWRMLIQQFRYDNYRLHQLGNSSVFTLTLQAGLSAIKTPQCYKEDGSSKSPDCPVCSRSLNKLAQPLPMAHCANSRLVCKISGDVMNENNPPMMLPNGYVYGYNSLLSIRQDDKVVCPRTKEVFHFSQAEKVYIM
B2: GΑSP1 (encoded by Gprasp1) (protein, UniProt Q5U4C1 1-1347)
chain: MTRAEVEPGAQAKAENKPGDENANAAEVEPEAPLVVRPKVRTQIMTGARPKVKPKGTPGARPKGETSTPGGAYAKCKPKAIPIARSKHDAQVWAPNKFRGESMSKMGKQCQISAADPPLLSNDSGMVAQAKCLPVDRELANMDTESIPKKANSPAGFQPSYGSEEGTNMGSWYRARPVPKGEAYENSDFKWADKPSGSPSFWNRDEASTRFRPRKSMKANNRFRHMAKQEANTMPRHKNKQEFYNISSSDSEDESGKTPWFWPKDKTKVWSKPKEEPNSRSWFRSKKEVRVESTSGSECENPTKSLFWSGEEAKSRSKPRARKGVNMRARQQAKREACSDAMSGAIDTNKKESWFLPEEKANVFSKSKTKKEPRTRAVPKEEVKTKARASTKQEARPEEEVLVGAWFWDTQESTMADRISIKTTFVEEEPIVGDWFWSEEEASVDSETCHTSRPRAKEEQVSSFCLGSGKKSSMESGPKATSKSMPVAKEDEVVIGSWFWADDEEINLQADDESIFGSWFWGTGENSLRSVGVNCEKMPKAGEKEVTDSWFWAGDVNTEAEVEEQARSASTKATIFVPWFWSEKQPNMDLGSEPCSDIMAGAEEEPIIGPWFWAKVDNSVEAEVNSKSSLEDEEEPIRSPWFGAREQTDMKYAAGIRYKPMAEAEDANKKSCVWAKEPCLYPTNRECLKSTLGEKEDTVDPWLWSNNYPRTKTITGSWLWAAEEGNIDDETGEKIKLPTLEDNAFNSWFWKENEESIVEAPKREEFRPEAEEEDIIGSWFWAGDEDRFEPAAKINEENKIASEDEDTVGSWFWGNEEASLEAVRRGTFESAPGIKEEKVTGSWFWTDKAKVGAGSQTVETGSETEEEAIFESLIWAAKKDSIQAGVKRVSKPKDDGNIAVGSWLWSSDKATKEAKTLIVSEASPENGKESVVKFGSRAKDEVINKTGSGDNCKHSTEAETIVGAWFWEGDEASFESNPVPVCKAVCEPESSAEHEPDPSRRPQSWDEVTVQFKAGPWGKAGFPPMNPFRFPKEAASLFAEMFGGKPKLVEVGPEREPEPQFPFQYDPSYRSVREIREHLKARESAQPENWSCNCIQCELRIGSEEFEELLLLMDRNRDPFIHEISKIAMGMRGASQFTRDFIRNSGVVSLIEALLNYPSSRVRTRFLENMVRMAPPYPDLNMIETYVCQICEDTFDYDLDSPDQLSGLTMITHLTATSDYHKVVVNYLAGFFYLLNSGNTKTRFHVLKLLLNLSENLVMTKRLLVTDSVSEFMDLINREESDENIQIVLAIFETISKHIQKEALFSDDDDDDEEEDAVNLEPFISAFREAEKIAKELKRKPGNQKAP
B3: Esyt1 (protein, UniProt Q3U7R1 1-1092)
chain: MEHSPEEGASPEPSGQPPATDSTRDGGSGVPPAGPGAASEALAVLTSFGRRLLVLVPVYLAGAAGLSVGFVLFGLALYLGWRRVRDGKERSLRAARQLLDDEERITAETLYMSHRELPAWVSFPDVEKAEWLNKIVAQVWPFLGQYMEKLLAETVAPAVRGANPHLQTFTFTRVELGEKPLRIIGVKVHPSQRKDQILLDLNVSYVGDVQIDVEVKKYFCKAGVKGMQLHGVLRVILEPLTGDLPIVGAVSMFFIKRPTLDINWTGMTNLLDIPGLSSLSDTMIMDSIAAFLVLPNRLLVPLVPDLQDVAQLRSPLPRGIIRIHLLAARGLSSKDKYVKGLIEGKSDPYALVRVGTQTFCSRVIDEELNPHWGETYEVIVHEVPGQEIEVEVFDKDPDKDDFLGRMKLDVGKVLQAGVLDNWYPLQGGQGQVHLRLEWLSLLPDAEKLDQVLQWNRGITSRPEPPSAAILVVYLDRAQDLPLKKGNKEPNPMVQLSVQDVTRESKATYSTNSPVWEEAFRFFLQDPRSQELDVQVKDDSRALTLGALTLPLARLLTASELTLDQWFQLSSSGPNSRLYMKLVMRILYLDYSEIRFPTVPGAQDWDRESLETGSSVDAPPRPYHTTPNSHFGTENVLRIHVLEAQDLIAKDRFLGGLVKGKSDPYVKLKVAGKSFRTHVVREDLNPRWNEVFEVIVTSIPGQELEIEVFDKDLDKDDFLGRYKVSLTTVLNSGFLDEWLTLEDVPSGRLHLRLERLTPRPTAAELEEVLQVNSLIQTQKSSELAAALLSVFLERAEDLPLRKGTKPPSPYATITVGETSHKTKTVSQSSAPVWEESASFLIRKPHAESLELQVRGEGTGTLGSVSLPLSELLQEDQLCLDHWFALSGQGQVLMRAQLGILVSQHSGVEAHSHSYSHSHSSSSLNDEPEALGGPTHPASPVLEVRHRLTHGDSPSEAPVGPLGQVKLTVWYHSDEQKLISIIHSCRALRQNGRDLPDPYVSVLLLPDKNRSTKRKTPQKKRTLNPEFNERFEWDLPLDGTLRRKLDVSVKSNSSFMSRERELLGKVQLDLAEIDLSQGAAQWYDLMDDRDKGGS
B4: Diras2 (protein, UniProt Q5PR73 1-199)
chain: MPEQSNDYRVAVFGAGGVGKSSLVLRFVKGTFRESYIPTVEDTYRQVISCDKSICTLQITDTTGSHQFPAMQRLSISKGHAFILVYSITSRQSLEELKPIYEQICEIKGDVESIPIMLVGNKCDESPNREVQSSEAEALARTWKCAFMETSAKLNHNVKELFQELLNLEKRRTVSLQIDGKKSKQQKRKEKLKGKCVVM
B5: Cp (protein, UniProt Q61147 20-1061)
chain: RDKHYFIGITEAVWDYASGTEEKKLISVDTEQSNFYLQNGPDRIGRKYKKALYFEYTDGTFSKTIDKPAWLGFLGPVIKAEVEDKVYVHLKNLASRIYTFHAHGVTYTKEYEGAVYPDNTTDFQRADDKVLPGQQYVYVLHANEPSPGEGDSNCVTRIYHSHVDAPKDIASGLIGPLILCKKGSLYKEKEKNIDQEFVLMFSVVDENLSWYLEDNIKTFCSEPEKVDKDNEDFQESNRMYSINGYTFGSLPGLSMCAADRVKWYLFGMGNEVDVHSAFFHGQALTSRNYQTDIINLFPATLIDAYMVAQNPGVWMLSCQNLNHLKAGLQAFFQVRDCNKPSPEDNIQDRHVRHYYIAAEEVIWNYAPSGTDIFTGENLTALESDSRVFFEQGATRIGGSYKKMAYREYTDGSFTNRKQRGPDEEHLGILGPVIWAEVGDTIKVTFHNKGQHPLSIQPMGVSFTAENEGTYYGPPGRSSQQAASHVAPKETFTYEWTVPKEMGPTYADPVCLSKMYYSGVDPTKDIFTGLIGPMKICKKGSLLADGRQKDVDKEFYLFPTVFDENESLLLDDNIRMFTTAPDQVDKEDEDFQESNKMHSMNGFMYGNQPGLNMCLGESIVWYLFSAGNEADVHGIYFSGNTYLSKGERRDTANLFPHKSLTLLMNPDTKGTFDVECLTTDHYTGGMKQKYTVNQCQRQFEDFTVYLGERTYYVAAVEVEWDYSPSRAWEKELHHLQEQNVSNVFLDKEEFFIGSKYKKVVYRQFTDSSFREQVKRRAEDEHLGILGPPIHANVGDKVKVVFKNMATRPYSIHAHGVKTESSTVVPTLPGEVRTYTWQIPERSGAGREDSACIPWAYYSTVDRVKDLYSGLIGPLIVCRKSYVKVFSPKKKMEFFLLFLVFDENESWYLDDNIKTYSEHPEKVNKDNEEFLESNKMHAINGKMFGNLQGLTMHVKDEVNWYVMGMGNEIDLHTVHFHGHSFQYKHRGVYSSDVFDLFPGTYQTLEMFPQTPGTWLLHCHVTDHVHAGMATTYTVLPVEQETKSG

target: T1, Flag‐tagged Tipe1 (bait of the IP/mass spectrometry); assay: affinity purification with mass spectrometry; IP by Flag-tagged Tipe1 from MIN6 cells, mass spectrometry of the precipitate

binding, binds:
Gαs, the α subunit of the G‐stimulating protein, endogenous in MIN6 cells (from UniProt P63094 1-394)
Krt15 (from UniProt Q61414 1-452)
USP9X (captured in the mass spectrometry) (from UniProt P70398 1-2559) (enzyme)
Celf4 (from UniProt Q7TSY6 1-486)
Krt7 (from UniProt Q9DCV7 1-457)
WWP2 (captured in the mass spectrometry) (from UniProt Q9DBH0 1-870) (enzyme)
deubiquitinase USP5, endogenous in MIN6 cells (from UniProt P56399 1-858) (enzyme)

target: T1, Flag‐tagged Tipe1 (bait of the IP/mass spectrometry); assay: as above; remark: another data set of the same source

binding, binds:
B1
B2
B3
B4
B5

Results are given in words; binding and its absence hold for the method and conditions named. Binding seen in cells or lysates may run through a third protein. These calls come from enrichment with a bait or labelling near it, and not all partners need be listed. Sequences can lack the tags named with a protein.
